Data: BindingDB's records for doi:10.1126/science.279.5347.77 (Abbott Laboratories, 1998)

Amino acid sequences for entries named in this document (tags omitted). A change or cut given only in a name is not applied to a line headed by its entry.
UniProt P09483: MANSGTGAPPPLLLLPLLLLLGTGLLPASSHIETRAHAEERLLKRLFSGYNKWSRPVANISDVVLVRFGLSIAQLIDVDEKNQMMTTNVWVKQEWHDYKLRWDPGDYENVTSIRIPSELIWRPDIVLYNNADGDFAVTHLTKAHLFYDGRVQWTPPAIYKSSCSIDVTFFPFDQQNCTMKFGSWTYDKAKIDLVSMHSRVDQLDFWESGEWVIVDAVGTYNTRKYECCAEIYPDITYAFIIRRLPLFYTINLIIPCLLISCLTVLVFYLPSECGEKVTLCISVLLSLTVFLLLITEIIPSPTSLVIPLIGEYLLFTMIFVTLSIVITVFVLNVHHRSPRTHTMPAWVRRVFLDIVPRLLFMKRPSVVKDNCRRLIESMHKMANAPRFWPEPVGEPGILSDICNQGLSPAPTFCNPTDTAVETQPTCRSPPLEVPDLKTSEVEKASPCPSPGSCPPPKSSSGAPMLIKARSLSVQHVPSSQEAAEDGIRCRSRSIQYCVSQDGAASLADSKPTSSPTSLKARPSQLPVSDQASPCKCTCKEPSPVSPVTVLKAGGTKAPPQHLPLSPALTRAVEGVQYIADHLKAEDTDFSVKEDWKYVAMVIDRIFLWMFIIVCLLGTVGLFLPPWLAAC

Molecular target: Neuronal acetylcholine receptor subunit alpha-4 (Rattus norvegicus, UniProt P09483)

Compound: CN1CC[C@]23c4c5ccc(O)c4O[C@H]2[C@@H](O)C=C[C@H]3[C@H]1C5
- Ki: > 10 µM
